Values of other authors, collected in US9370502B2, “Pharmaceutical compositions containing oligomeric lactic acid” (LACCURE AB, priority 2012, dated 2016).
Some results were stated once for a whole list of compounds, not compound by compound. For at least one compound, name, drawing or mass did not settle the structure.

System: bacterial vaginosis (BV)
Conditions: for initial response to treatment: oral or vaginal preparations; for relapse: within 3 months

SMILES	initial response to treatment	relapse
CCC[C@@H]1C[C@@H](C(=O)N[C@@H]([C@H]2O[C@H](SC)[C@H](O)[C@@H](O)[C@H]2O)[C@H](C)Cl)N(C)C1 [clindamycin]	80-90%	15-30%
Cc1ncc([N+](=O)[O-])n1CCO [metronidazole]	80-90%	15-30%
